## Results of single-concentration screens

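Assay of Toxoplasma gondii numbers, read through their beta-galactosidase reporter with a colour substrate. Concentration: 50 µM. The record gives no direction; the compounds picked for IC50 retests had high values, so higher reads as fewer parasites. Size under these conditions: about 18,000 compounds, about 170 of them at 50% or above in at least one test.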

Results are given as percent effect. How 0% and 100% were set is not recorded. Most values in the screen are low, and negative values occur. This is an unselected part of the compounds tested.

{"compound": "C=C(C)CN(CC)C(=O)Cc1c(C)noc1C", "percent effect": 3.488}
{"compound": "Cc1cncc(CN)c1", "percent effect": 1.166}
{"compound": "COCCN(CC(N)=O)C(=O)c1cc(C)c(F)cc1Cl", "percent effect": 0.8172}
{"compound": "Cc1ccc(C)c(OC(C)C(=O)NCCS(C)(=O)=O)c1", "stereo": "stereo not drawn", "percent effect": -21.83}
{"compound": "CC(C)CC(O)CNC(=O)c1ccccc1O", "stereo": "stereo not drawn", "percent effect": 6.287}
{"compound": "COC(=O)CNc1ccccc1N1CCC(O)CC1", "percent effect": -4.039}
{"compound": "Cc1ccc(S(=O)(=O)Nc2ccc(N(C)C)nc2)cc1", "percent effect": -8.699}
{"compound": "C[C@@H]1CN(C(=O)CCCc2cn[nH]c2)C[C@]1(C)O", "percent effect": 25.23}
{"compound": "COc1ccc(NC(=O)Cn2ccnc2)c(OC)c1", "percent effect": -1.216}
{"compound": "O[C@H]1CN(Cc2cccnc2)C[C@@H]1N1CCCCC1", "percent effect": -8.502}
{"compound": "CCC(CC)C(O)CNC(=O)CC1(O)CCCC1", "stereo": "stereo not drawn", "percent effect": -2.751}
{"compound": "CC(C)CN1CCN(C(=O)c2ccncc2F)CC1", "percent effect": 15.69}
{"compound": "Cn1cc(C(N)C2(CO)CCC2)cn1", "stereo": "stereo not drawn", "percent effect": -8.284}
{"compound": "O=C(CCNC(=O)c1cc[nH]n1)NC1CCCCC1", "percent effect": -1.921}
{"compound": "CCc1ccc(N(C(C)C(=O)NC)S(C)(=O)=O)cc1", "stereo": "stereo not drawn", "percent effect": -7.08}
{"compound": "CCC(NCC(=O)NC1CC1)c1c(C)noc1C", "stereo": "stereo not drawn", "percent effect": 2.072}
{"compound": "COc1ccc(CN2CCCNCC2)cc1", "percent effect": 13.71}
{"compound": "Cc1nnc(SCC(=O)N2CC[C@](C)(O)[C@@H](O)C2)o1", "percent effect": 3.881}
{"compound": "OCCNc1nc2ccccc2s1", "percent effect": 92.76}
{"compound": "NCc1cnn(-c2ccc(Br)cc2)c1", "percent effect": -18.81}
{"compound": "COCC(NC1CCC2(CC1)OCCO2)c1ccco1", "stereo": "stereo not drawn", "percent effect": -2.134}
{"compound": "CCc1cc(CNC(=O)NCc2cnn(C)c2)on1", "percent effect": 2.964}
{"compound": "CC(CCn1cccn1)NC1CCOCC1", "stereo": "stereo not drawn", "percent effect": 20.01}
{"compound": "Cc1nnc(SCCCNC(=O)c2csnn2)s1", "percent effect": -17.44}
{"compound": "CCC(N)CN(C)CCCN(C)C", "stereo": "stereo not drawn", "percent effect": 9.171}
{"compound": "CC(C)OCCn1c(S(C)(=O)=O)nc2ccccc21", "percent effect": 16.17}
{"compound": "CCC(C)NC(=O)c1nc2ccccc2n(C)c1=O", "stereo": "stereo not drawn", "percent effect": -6.897}
{"compound": "NC(=O)CN1CCCC1c1ccsc1", "stereo": "stereo not drawn", "percent effect": -20.32}

Data taken from ChEMBL document CHEMBL3988442, “University of Dundee, Small-Polar-MMV Screening Library” (2021).